Measured values taken from patent publication US20120028929A1, “TETRACYCLINE STABILIZING FORMULATIONS” (ALACRITY BIOSCIENCE, INC., priority 2008, published 2012).
Like-named read-outs stand apart in the source and are kept apart here. For at least one compound, name, drawing or mass did not settle the structure.

Columns and labels:
[1] = Combinatorial effect of antioxidants and tonicity adjustment agents in pH stability; format: physicochemical; settings: HPMC
[2] = format: physicochemical
Protocol: The rate of doxycycline epimerization increased with temperature and time (see Table 7). […] Long-term storage (more than 18 months) should therefore be at refrigeration temperatures (2-8° C.) to minimize conversion of doxycycline to its epimers.
After 12 months of storage at 5° C., about 0.0014% w/w of the doxycycline in solution was lost to degradation. That is, original doxycyline concentration was 0.025% w/w and concentration after 12 months was 0.0236% w/w, corresponding to 94.4% Label Claim (LC).
The epimerization of doxycycline into 4-epidoxycycline is reversible, and the rate of 4-epidoxycycline formation is related to the kinetic equilibrium between the two compounds. Therefore, one method for specifically reducing the rate of doxycycline epimerization into 4-epidoxycycline is to fortify the formulation with 4-epidoxycycline.

[3] = Stability of 0.05% doxycycline in phase 3 formula base; format: physicochemical; settings: for 4-epimer / 6-epimer / Doxycycline (% LC) / pH: phase 3 formula base
[4] = Doxycycline formulation stability 1-12 Months (preferred / phase 2 formulation); format: physicochemical
[5] = Effect of three freeze-thaw cycles on the doxycycline assay values; format: physicochemical; settings: for Doxycycline Assay Values (% Label Claim) After three freeze-thaw cycles: cycle: −20° C. three days, 25° C. three to four days
[6] = Edetate Disodium 0.1%, Sodium Metabisulfite 0.1%, Sodium Thiosulfate 0.2%, Glycerin (167 mOsm/kg), 5° C.
[7] = Edetate Disodium 0.1%, Sodium Metabisulfite 0.1%, Sodium Thiosulfate 0.2%, Glycerin (167 mOsm/kg), 25° C.
[8] = Edetate Disodium 0.1%, Sodium Metabisulfite 0.1%, Sodium Thiosulfate 0.2%, Glycerin (167 mOsm/kg), 40° C.
[9] = Edetate Disodium 0.1%, Sodium Metabisulfite 0.1%, Sodium Thiosulfate 0.2%, NaCl (325 mOsm/kg), 5° C.
[10] = Edetate Disodium 0.1%, Sodium Metabisulfite 0.1%, Sodium Thiosulfate 0.2%, NaCl (325 mOsm/kg), 25° C.
[11] = Edetate Disodium 0.1%, Sodium Metabisulfite 0.1%, Sodium Thiosulfate 0.2%, NaCl (325 mOsm/kg), 40° C.
[12] = Edetate Disodium 0.1%, Sodium Metabisulfite 0.1%, Glycerin (138 mOsm/kg), 5° C.
[13] = Edetate Disodium 0.1%, Sodium Metabisulfite 0.1%, Glycerin (138 mOsm/kg), 25° C.
[14] = Edetate Disodium 0.1%, Sodium Metabisulfite 0.1%, Glycerin (138 mOsm/kg), 40° C.
[15] = Edetate Disodium 0.1%, Sodium Metabisulfite 0.1%, NaCl (305 mOsm/kg), 5° C.
[16] = Edetate Disodium 0.1%, Sodium Metabisulfite 0.1%, NaCl (305 mOsm/kg), 25° C.
[17] = Edetate Disodium 0.1%, Sodium Metabisulfite 0.1%, NaCl (305 mOsm/kg), 40° C.
[18] = Edetate Disodium 0.2%, Sodium Metabisulfite 0.2%, Sodium Thiosulfate 0.3%, Glycerin (287 mOsm/kg), 5° C.
[19] = Edetate Disodium 0.2%, Sodium Metabisulfite 0.2%, Sodium Thiosulfate 0.3%, Glycerin (287 mOsm/kg), 25° C.
[20] = Edetate Disodium 0.2%, Sodium Metabisulfite 0.2%, Sodium Thiosulfate 0.3%, Glycerin (287 mOsm/kg), 40° C.
[21] = Edetate Disodium 0.2%, Sodium Metabisulfite 0.2%, Sodium Thiosulfate 0.3%, NaCl (330 mOsm/kg), 5° C.
[22] = Edetate Disodium 0.2%, Sodium Metabisulfite 0.2%, Sodium Thiosulfate 0.3%, NaCl (330 mOsm/kg), 25° C.
[23] = Edetate Disodium 0.2%, Sodium Metabisulfite 0.2%, Sodium Thiosulfate 0.3%, NaCl (330 mOsm/kg), 40° C.
[24] = 0.025% w/w Doxycycline in Standard Formulation, 5° C. for 12 mo
[25] = 0.025% w/w Doxycycline in Standard Formulation, 25° C. for 12 mo
[26] = Buffer 0.45 mM, Aerated, 25° C.
[27] = Buffer 0.45 mM, N2 Sparged, 5° C.
[28] = Buffer 0.45 mM, N2 Sparged, 25° C.
[29] = Buffer 9.5 mM, N2 Sparged, 5° C.
[30] = Buffer 9.5 mM, N2 Sparged, 25° C.

C[C@H]1c2cccc(O)c2C(=O)C2=C(O)[C@]3(O)C(=O)C(C(N)=O)=C(O)[C@@H](N(C)C)[C@@H]3[C@@H](O)[C@@H]21 [doxycycline]
pH Init. ([1]; Edetate Disodium 0.1%, Sodium Metabisulfite 0.1%, Sodium Thiosulfate 0.2%, Glycerin (167 mOsm/kg)): 5.55 | pH 2 Wks [1, 6]: 5.55 | pH 5 Wks [1, 6]: 5.40 | pH 8 Wks [1, 6]: 5.35 | pH 12 Wks [1, 6]: 5.45 | pH 2 Wks [1, 7]: 5.50 | pH 5 Wks [1, 7]: 5.10 | pH 8 Wks [1, 7]: 5.05 | pH 12 Wks [1, 7]: 4.85 | pH 2 Wks [1, 8]: 5.00 | pH 5 Wks [1, 8]: 4.20 | pH Init. ([1]; Edetate Disodium 0.1%, Sodium Metabisulfite 0.1%, Sodium Thiosulfate 0.2%, NaCl (325 mOsm/kg)): 5.55 | pH 2 Wks [1, 9]: 5.75 | pH 5 Wks [1, 9]: 5.60 | pH 8 Wks [1, 9]: 5.50 | pH 2 Wks [1, 10]: 5.65 | pH 5 Wks [1, 10]: 5.10 | pH 8 Wks [1, 10]: 4.55 | pH 2 Wks [1, 11]: 4.50 | pH 5 Wks [1, 11]: 3.70 | pH Init. ([1]; Edetate Disodium 0.1%, Sodium Metabisulfite 0.1%, Glycerin (138 mOsm/kg)): 5.55 | pH 2 Wks [1, 12]: 5.45 | pH 5 Wks [1, 12]: 5.05 | pH 2 Wks [1, 13]: 5.00 | pH 5 Wks [1, 13]: 4.10 | pH 2 Wks [1, 14]: 4.45 | pH 5 Wks [1, 14]: 3.65 | pH Init. ([1]; Edetate Disodium 0.1%, Sodium Metabisulfite 0.1%, NaCl (305 mOsm/kg)): 5.55 | pH 2 Wks [1, 15]: 4.90 | pH 5 Wks [1, 15]: 3.80 | pH 2 Wks [1, 16]: 4.30 | pH 5 Wks [1, 16]: 3.50 | pH 2 Wks [1, 17]: 3.90 | pH 5 Wks [1, 17]: 3.30 | pH Init. ([1]; Edetate Disodium 0.2%, Sodium Metabisulfite 0.2%, Sodium Thiosulfate 0.3%, Glycerin (287 mOsm/kg)): 5.55 | pH 2 Wks [1, 18]: 5.55 | pH 5 Wks [1, 18]: 5.55 | pH 8 Wks [1, 18]: 5.50 | pH 12 Wks [1, 18]: 5.45 | pH 2 Wks [1, 19]: 5.60 | pH 5 Wks [1, 19]: 5.30 | pH 8 Wks [1, 19]: 5.00 | pH 12 Wks [1, 19]: 4.65 | pH 2 Wks [1, 20]: 4.85 | pH 5 Wks [1, 20]: 4.00 | pH Init. ([1]; Edetate Disodium 0.2%, Sodium Metabisulfite 0.2%, Sodium Thiosulfate 0.3%, NaCl (330 mOsm/kg)): 5.55 | pH 2 Wks [1, 21]: 5.55 | pH 5 Wks [1, 21]: 5.40 | pH 8 Wks [1, 21]: 5.45 | pH 2 Wks [1, 22]: 5.50 | pH 5 Wks [1, 22]: 5.10 | pH 8 Wks [1, 22]: 4.65 | pH 2 Wks [1, 23]: 4.55 | pH 5 Wks [1, 23]: 3.90 | % Label Claim for Doxycycline [2, 24]: 94.4 % Label Claim | Change in Doxycycline % w/w [2, 24]: −0.0014 % w/w | Determined Doxycycline % w/w [2, 24]: 0.0236 % w/w | % Label Claim for Doxycycline [2, 25]: 63.2 % Label Claim | Change in Doxycycline % w/w [2, 25]: −0.0092 % w/w | Determined 4-Epidoxycycline % w/w [2, 25]: 0.0060 % w/w | Determined 6-Epidoxycycline % w/w [2, 25]: 0.0001 % w/w | Determined Doxycycline % w/w [2, 25]: 0.0158 % w/w | 4-epidoxycycline appearing at 25° C. relative to 5° C. ([2]; 0.025% w/w doxycycline formulation, 12 months): about 3 times | pH change ([3]; phase 3 base formulation, 5° C.): did not change | appearance ([3]; phase 3 base formulation, glass vials, one and three months at 5 and 25° C.): stayed the same | 4-epimer ([3]; 5° C., 1 month): 0.6 | 6-epimer ([3]; 5° C., 1 month): 0.3 | Doxycycline (% LC) ([3]; 5° C., 1 month): 102.4 % LC | pH ([3]; 5° C., 1 month): 5.5 | 4-epimer ([3]; 5° C., 3 months): 2.3 | 6-epimer ([3]; 5° C., 3 months): 0.4 | Doxycycline (% LC) ([3]; 5° C., 3 months): 104.3 % LC | pH ([3]; 5° C., 3 months): 5.5 | 4-epimer ([3]; 25° C., 1 month): 3.4 | 6-epimer ([3]; 25° C., 1 month): 0.3 | Doxycycline (% LC) ([3]; 25° C., 1 month): 97.2 % LC | pH ([3]; 25° C., 1 month): 5.3 | 4-epimer ([3]; 25° C., 3 months): 13.4 | 6-epimer ([3]; 25° C., 3 months): 0.4 | pH ([3]; 25° C., 3 months): 4.8 | 4-epimer ([3]; Batch 2266-122, Initial): 0.6 | 6-epimer ([3]; Batch 2266-122, Initial): 0.4 | Doxycycline (% LC) ([3]; Batch 2266-122, Initial): 105.2 % LC | pH ([3]; Batch 2266-122, Initial): 5.4 | Doxycycline as % Label Claim, 1 M ([4]; Buffer 0.45 mM, Aerated, 5° C.): 101.6% | Doxycycline as % Label Claim, 2 M ([4]; Buffer 0.45 mM, Aerated, 5° C.): 97.5% | Doxycycline as % Label Claim, 3 M ([4]; Buffer 0.45 mM, Aerated, 5° C.): 88.6% | Doxycycline as % Label Claim, 9 M ([4]; Buffer 0.45 mM, Aerated, 5° C.): 97.4% | Doxycycline as % Label Claim, 12 M ([4]; Buffer 0.45 mM, Aerated, 5° C.): 96.4% | Doxycycline as % Label Claim, 1 M [4, 26]: 97.6% | Doxycycline as % Label Claim, 2 M [4, 26]: 85.9% | Doxycycline as % Label Claim, 3 M [4, 26]: 84.3% | Doxycycline as % Label Claim, 9 M [4, 26]: 67.6% | Doxycycline as % Label Claim, 12 M [4, 26]: 61.0% | Doxycycline as % Label Claim, 1 M [4, 27]: 101.4% | Doxycycline as % Label Claim, 2 M [4, 27]: 97.4% | Doxycycline as % Label Claim, 3 M [4, 27]: 97.6% | Doxycycline as % Label Claim, 9 M [4, 27]: 97.2% | Doxycycline as % Label Claim, 12 M [4, 27]: 96.4% | Doxycycline as % Label Claim, 1 M [4, 28]: 97.0% | Doxycycline as % Label Claim, 2 M [4, 28]: 87.7% | Doxycycline as % Label Claim, 3 M [4, 28]: 83.6% | Doxycycline as % Label Claim, 9 M [4, 28]: 67.6% | Doxycycline as % Label Claim, 12 M [4, 28]: 62.2% | Doxycycline as % Label Claim, 1 M ([4]; Buffer 9.5 mM, Aerated, 5° C.): 102.2% | Doxycycline as % Label Claim, 2 M ([4]; Buffer 9.5 mM, Aerated, 5° C.): 98.9% | Doxycycline as % Label Claim, 3 M ([4]; Buffer 9.5 mM, Aerated, 5° C.): 98.9% | Doxycycline as % Label Claim, 9 M ([4]; Buffer 9.5 mM, Aerated, 5° C.): 96.2% | Doxycycline as % Label Claim, 12 M ([4]; Buffer 9.5 mM, Aerated, 5° C.): 95.4% | Doxycycline as % Label Claim, 1 M ([4]; Buffer 9.5 mM, Aerated, 25° C.): 97.2% | Doxycycline as % Label Claim, 2 M ([4]; Buffer 9.5 mM, Aerated, 25° C.): 88.2% | Doxycycline as % Label Claim, 3 M ([4]; Buffer 9.5 mM, Aerated, 25° C.): 83.8% | Doxycycline as % Label Claim, 9 M ([4]; Buffer 9.5 mM, Aerated, 25° C.): 68.0% | Doxycycline as % Label Claim, 12 M ([4]; Buffer 9.5 mM, Aerated, 25° C.): 63.6% | Doxycycline as % Label Claim, 1 M [4, 29]: 102.6% | Doxycycline as % Label Claim, 2 M [4, 29]: 98.6% | Doxycycline as % Label Claim, 3 M [4, 29]: 98.6% | Doxycycline as % Label Claim, 9 M [4, 29]: 97.0% | Doxycycline as % Label Claim, 12 M [4, 29]: 94.4% | Doxycycline as % Label Claim, 1 M [4, 30]: 96.6% | Doxycycline as % Label Claim, 2 M [4, 30]: 87.9% | Doxycycline as % Label Claim, 3 M [4, 30]: 83.4% | Doxycycline as % Label Claim, 9 M [4, 30]: 69.4% | Doxycycline as % Label Claim, 12 M [4, 30]: 63.4% | Doxycycline as % Label Claim, Init. ([4]; Buffer Sr. 0.45 mM): 100% | Doxycycline as % Label Claim, Init. ([4]; Buffer Sr. 9.5 mM): 101.2% | concentration of doxycycline, % of the initial value (% Label Claim) ([4]; preferred formulation, 5° C., 12 months): approximately 95% | concentration of doxycycline, % Label Claim ([4]; preferred formulation, 25° C. (room temperature), three months): approximately 84 % Label Claim | Doxycycline Assay Values (% Label Claim) After three freeze-thaw cycles ([5]; Label Claim 0.0025% w/w): 94.8 % Label Claim | % Loss of Doxycycline ([5]; Label Claim 0.0025% w/w, three freeze-thaw cycles): 2.8% | Doxycycline Assay Values (% Label Claim) After three freeze-thaw cycles ([5]; Label Claim 0.0050% w/w): 98.8 % Label Claim | % Loss of Doxycycline ([5]; Label Claim 0.0050% w/w, three freeze-thaw cycles): 3.6% | Doxycycline Assay Values (% Label Claim) After three freeze-thaw cycles ([5]; Label Claim 0.0250% w/w): 99.8 % Label Claim | % Loss of Doxycycline ([5]; Label Claim 0.0250% w/w, three freeze-thaw cycles): 3.0% | loss of doxycycline ([5]; three freeze-thaw cycles, independent of the concentration of doxycycline): approximately 3%
